Test [1] has as its target T1, HA-TurboID RNF12 (UniProt Q9WTV7).
T1 sequence: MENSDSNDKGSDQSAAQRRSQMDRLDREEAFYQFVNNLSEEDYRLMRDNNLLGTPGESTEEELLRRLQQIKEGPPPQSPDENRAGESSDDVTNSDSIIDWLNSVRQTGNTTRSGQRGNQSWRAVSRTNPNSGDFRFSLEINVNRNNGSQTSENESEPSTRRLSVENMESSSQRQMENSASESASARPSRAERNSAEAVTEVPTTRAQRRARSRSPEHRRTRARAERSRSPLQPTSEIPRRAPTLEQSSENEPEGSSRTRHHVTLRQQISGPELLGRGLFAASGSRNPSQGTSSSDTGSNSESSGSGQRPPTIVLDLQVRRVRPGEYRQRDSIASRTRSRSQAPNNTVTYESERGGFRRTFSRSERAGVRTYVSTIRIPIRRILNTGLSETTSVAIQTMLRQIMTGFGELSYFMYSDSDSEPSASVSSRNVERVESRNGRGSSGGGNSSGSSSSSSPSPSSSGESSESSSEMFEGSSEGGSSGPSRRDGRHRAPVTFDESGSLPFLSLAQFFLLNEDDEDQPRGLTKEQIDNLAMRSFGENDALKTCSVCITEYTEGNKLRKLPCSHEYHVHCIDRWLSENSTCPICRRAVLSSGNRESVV
The experiment in a line: proximity labelling.

The target of test [2] is T1, HA-TurboID RNF12. As to the kind of experiment: proximity labelling. The source holds these as a separate data set.

Here are results for three molecules from paper doi:10.1101/2023.06.14.544957.

Read-outs that look alike come from different tables or passages of the source. These are yes or no findings as the source states them, for the method shown. Binding seen in cells or lysates may run through a third protein. A yes stands for co-enrichment or nearness to the bait. Other partners may have been found. Where a sequence is shown, tags or fusion partners need not be part of it.

As to PCNA (from UniProt P17918 1-261), the binding result with HA-TurboID RNF12 [1] was “binds”.

Take “REX1/ZFP42 (endogenous, mESCs) (from UniProt P22227 1-288)”: the binding entry in the test with HA-TurboID RNF12 [1] was “binds”.

B1: WRNIP1 (protein, UniProt Q91XU0 1-660)
chain: MEVSGPEDDPFLSQLHQVQCPVCQQMMPAAHINSHLDRCLLLHPAGHAEPAAGSHRAGERAKGPSPPGAKRRRLSESSALKQPATPTAAESSEGEGEEGDDGGETESRESYDAPPTPSGARLIPDFPVARSSSPARKGMGKRPAAAAAAGSASPRSWDEAEAQEEEEAGVDGDGDADVDGEDDPGHWDADAADASFGVSAGRAHPRALAAEEIRQMLEGKPLADKMRPDTLQDYIGQSRAVGQETLLRSLLEANEIPSLILWGPPGCGKTTLAHIIANNSKKHSIRFVTLSATNAKTNDVRDVIKQAQNEKSFFKRKTILFIDEIHRFNKSQQDTFLPHVECGTITLIGATTENPSFQVNAALLSRCRVIVLEKLPVEAMVTILMRAINSLGIHVLDSSRPTDPLSHSSNCSSEPSVFIEDKAVDTLAYLSDGDARTGLNGLQLAVLARLSSRKVFCKKSGQTYSPSRVLITENDVKEGLQRSHILYDRAGEEHYNCISALHKAMRGSDQNASLYWLARMLEGGEDPLYVARRLVRFASEDIGLADPSALAQAVAAYQGCHFIGMPECEVLLAQCVVYFARAPKSIEVYSAYNNVKACLRSHQGPLPPVPLHLRNAPTRLMKDLGYGKGYKYNPMYSEPVDQDYLPEELRGVDFFKQRRC
Regarding B1, in the test with HA-TurboID RNF12 [2], the binding entry is “binds”.
